Experimental data reported in US11384071B2, “Inhibitors of mechanotransduction to treat pain and modulate touch perception” (Max-Delbrück-Centrum für Molekulare Medizin in der …, priority 2016, dated 2022).

Test system: Stoml3 mRNA
Assay: qPCR of Stoml3 transcript levels after inhibitor treatment
Format: cell-based, mouse
Conditions: 3 hours, 20 μM

For CCOC(=O)c1c(-c2ccccc2)oc2ccc(Oc3c([N+](=O)[O-])ncn3C)cc12 [OB-1, Ethyl 5-((1-methyl-4-nitro-1H-imidazol-5-yl)oxy)-2-phenylbenzofuran-3-carboxylate], the “levels of Stoml3 mRNA” value (N2A cells) was “did not reflect changes” and the “level of Stoml3 transcripts” value (sensory neurons) was “did not lead to any changes”.
